According to patent US20250145680A1 (REMD BIOTHERAPEUTICS, published 2025):
These are yes or no findings as the source states them, for the method shown. Some entries that bind do so weakly or less than the wild type.

By UniProt entry, the sequences of proteins in these tests, tags left out. Residues count along the entry.
UniProt Q9NZQ7, residues 19-290: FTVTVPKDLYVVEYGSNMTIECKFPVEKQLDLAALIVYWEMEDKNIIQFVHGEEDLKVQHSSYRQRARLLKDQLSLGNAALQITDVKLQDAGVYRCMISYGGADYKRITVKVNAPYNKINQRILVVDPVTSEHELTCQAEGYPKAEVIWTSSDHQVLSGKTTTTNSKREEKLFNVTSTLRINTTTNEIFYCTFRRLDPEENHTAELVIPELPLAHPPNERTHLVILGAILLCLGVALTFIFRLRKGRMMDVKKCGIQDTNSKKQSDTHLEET

Molecular target: PD-L1 (human) (UniProt Q9NZQ7)
Assay: flow cytometry on OVCAR-3 cells, REMD290 as staining antibody

binding: binds
B1: anti-PD-L1 mAb (REMD290) (antibody, human IgG4 S228P, kappa, V domains shown)
VH: QMQLVQSGAEVKKTGSSVKVSCKASGYTFTSYSINWVRQAPGKGLEWVAYFYVGNGYTDYNEKFKGRVTMTRDTSTSTVYMELSSLRSEDTAVYYCARGGLPYYFDYWGQGTLVTVSS
VL: DIQMTQSPSSVSASVGDRVTITCKTSQDVNTAVAWYQQKPGQAPRLLIYWASTRHTGVPDRFSGSGSGTDFTLTISSLQAEDVAVYYCQQHYNTPLTFGGGTKLEIKR
